No constants are given. Whether binding was seen depends on the method and setting. In cells and extracts the contact can be indirect. Some results given as binding are weak or reduced against the parent protein; the word gives no strength.
Experiments:
[1] = biological target: Robo2, endogenous, of newborn mouse kidney (mouse) (UniProt Q7TPD3); experiment: co-immunoprecipitation with anti-nephrin antibody from newborn mouse kidney lysate; complex through Nck
[2] = biological target: Robo2, endogenous, of newborn mouse kidney (mouse) (UniProt Q7TPD3); experiment: co-immunoprecipitation with mouse anti-nephrin antibody from mouse kidney lysate, Western blot; complex
[3] = biological target: Robo2, endogenous, of newborn mouse kidney (mouse) (UniProt Q7TPD3); experiment: co-immunoprecipitation with anti-nephrin antibody from kidneys of Robo2 +/+, +/- and -/- mice, Western blot; complex

Sequences of proteins named here, by UniProt entry; tags and fusion partners are left off. Residues count along the entry.
UniProt Q7TPD3, residues 22-1470: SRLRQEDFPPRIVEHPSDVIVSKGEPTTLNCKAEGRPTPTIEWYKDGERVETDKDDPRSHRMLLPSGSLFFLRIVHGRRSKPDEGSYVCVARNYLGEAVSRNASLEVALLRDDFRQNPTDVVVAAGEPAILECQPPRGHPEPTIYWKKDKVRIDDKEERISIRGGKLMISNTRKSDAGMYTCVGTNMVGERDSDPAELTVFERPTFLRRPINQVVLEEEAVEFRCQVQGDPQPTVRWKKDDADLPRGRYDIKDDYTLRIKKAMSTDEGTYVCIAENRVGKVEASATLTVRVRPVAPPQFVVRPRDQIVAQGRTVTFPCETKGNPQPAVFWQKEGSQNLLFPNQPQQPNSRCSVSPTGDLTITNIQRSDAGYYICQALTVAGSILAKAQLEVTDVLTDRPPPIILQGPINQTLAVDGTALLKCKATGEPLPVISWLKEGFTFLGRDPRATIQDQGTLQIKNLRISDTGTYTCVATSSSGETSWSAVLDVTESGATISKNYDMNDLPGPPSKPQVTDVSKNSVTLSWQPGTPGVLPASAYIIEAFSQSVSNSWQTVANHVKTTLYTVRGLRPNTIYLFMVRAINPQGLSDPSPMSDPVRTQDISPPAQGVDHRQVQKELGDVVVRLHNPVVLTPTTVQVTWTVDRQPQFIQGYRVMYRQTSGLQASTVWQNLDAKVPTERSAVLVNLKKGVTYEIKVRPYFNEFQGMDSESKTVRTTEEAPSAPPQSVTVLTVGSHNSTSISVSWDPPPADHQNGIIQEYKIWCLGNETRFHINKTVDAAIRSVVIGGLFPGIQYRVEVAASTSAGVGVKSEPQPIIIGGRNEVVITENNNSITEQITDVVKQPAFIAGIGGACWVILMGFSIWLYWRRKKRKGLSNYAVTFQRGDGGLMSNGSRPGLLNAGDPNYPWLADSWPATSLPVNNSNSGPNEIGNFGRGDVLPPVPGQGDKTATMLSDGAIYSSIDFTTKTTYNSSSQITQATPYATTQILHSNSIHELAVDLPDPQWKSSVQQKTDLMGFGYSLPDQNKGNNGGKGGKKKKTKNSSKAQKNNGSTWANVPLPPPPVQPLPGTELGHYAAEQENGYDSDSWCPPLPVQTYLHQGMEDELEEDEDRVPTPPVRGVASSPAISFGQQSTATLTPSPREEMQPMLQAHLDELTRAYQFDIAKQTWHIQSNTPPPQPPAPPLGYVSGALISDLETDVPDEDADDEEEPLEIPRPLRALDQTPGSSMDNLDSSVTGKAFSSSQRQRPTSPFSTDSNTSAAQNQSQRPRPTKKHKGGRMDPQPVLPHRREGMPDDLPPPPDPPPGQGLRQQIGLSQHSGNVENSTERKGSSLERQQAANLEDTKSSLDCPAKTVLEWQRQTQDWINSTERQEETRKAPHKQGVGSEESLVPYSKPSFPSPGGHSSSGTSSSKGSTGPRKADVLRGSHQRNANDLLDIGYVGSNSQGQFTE

Measured: binding

B1: nephrin, endogenous, of mouse kidney (receptor, UniProt Q9QZS7 37-1256, looked up)
chain: QSPVPTSAPRGFWALSENLTVVEGSTVKLWCGVRAPGSVVQWAKDGLLLGPNPKIPGFPRYSLEGDSAKGEFHLLIEACDLSDDAEYECQVGRSELGPELVSPSVILSILVSPKVLQLTPEAGSTVTWVAGQEYVVTCVSGDAKPAPDIIFIQGGRTVEDVSSSVNEGSEEKLFFTEAEARVTPQSSDNGQLLVCEGSNPALATPIKASFTMNILFPPGPPVIDWPGLNEGHVRAGENLELPCIARGGNPPATLQWLKNGKPVSIAWGTEHAQAVAHSVLVMTVRPEDHGARLSCQSYNSVSAETQERSITLQVTFPPSAVTILGSTSQSENKNVTLCCLTKSSRPRVLLRWWLGGRQLLPTDETVMDGLHGGHISMSNLTLLVKREDNGLSLTCEAFSDAFSKETFKKSLTLNVKYPAQKLWIEGPPEGQSIRTGTRVRLVCLAIGGNPEPSLTWLKDSRPVNDPRQSQEPRRVQLGSVEKSGSTFSRELVLIIGPPDNLAKFSCKAGQLSASTQLVVQFPPTNLTILANSSALRPGDALNLTCVSISSNPPVNLSLDKEGERLDDVAAKPQSAPFKGSAASRSVFLRVSSRDHGHRVTCRAHSEALRETVSSFYRLNVLYPPEFLGEQVRAVTVVEQGQALLPVSVSANPAPEAFNWTFRGYRLSPAGGPRHRILSGGALQLWNVTRADDGFYQLHCQNSEGTAEALLKLDVHYAPTIRALKDPTEVNVGGSVDIVCTVDANPILPEMFSWERLGEDEEELNLDDMEKMSKGSTGRLRIRQAKLSQAGAYQCIVDNGVAPAARGLVRLVVRFAPQVDHPTPLTKVAAAGDSTSSATLHCRARGVPNIDFTWTKNGVPLDLQDPRYTEHKYHQGVVHSSLLTIANVSAAQDYALFKCTATNALGSDHTNIQLVSISRPDPPLGLKVVSVSPHSVGLEWKPGFDGGLPQRFQIRYEALESPGFLYMDVLPAQATTFTLTGLKPSTRYRIWLLASNALGDSGLTDKGIQVSITTPGLDQAPEDTDQPLPTEQPPGPPRLPLLPVLFAVGGLLLLSNASCVGGLLWRRRLRRLAEEISEKTEAGSEEDRIRNEYEESQWTGDRDTRSSTVSTAEVDPHYYSMRDFSPQLPPTLEEVSYRQAFTGIEDEDMAFPGHLYDEVERVYGPPGVWGPLYDEVQMDPYDLRWPEVKYEDPRGIYDQVAADMDAGEPGSLPFELRGHLV
binds: all assays above
